Experimental data: patent publication US20120094864A1
These are yes or no findings as the source states them, for the method shown. Some entries that bind do so weakly or less than the wild type.

The chains behind the UniProt entries cited, without tags or fusion partners. Residues count along the entry.
UniProt P11362, residues 22-822: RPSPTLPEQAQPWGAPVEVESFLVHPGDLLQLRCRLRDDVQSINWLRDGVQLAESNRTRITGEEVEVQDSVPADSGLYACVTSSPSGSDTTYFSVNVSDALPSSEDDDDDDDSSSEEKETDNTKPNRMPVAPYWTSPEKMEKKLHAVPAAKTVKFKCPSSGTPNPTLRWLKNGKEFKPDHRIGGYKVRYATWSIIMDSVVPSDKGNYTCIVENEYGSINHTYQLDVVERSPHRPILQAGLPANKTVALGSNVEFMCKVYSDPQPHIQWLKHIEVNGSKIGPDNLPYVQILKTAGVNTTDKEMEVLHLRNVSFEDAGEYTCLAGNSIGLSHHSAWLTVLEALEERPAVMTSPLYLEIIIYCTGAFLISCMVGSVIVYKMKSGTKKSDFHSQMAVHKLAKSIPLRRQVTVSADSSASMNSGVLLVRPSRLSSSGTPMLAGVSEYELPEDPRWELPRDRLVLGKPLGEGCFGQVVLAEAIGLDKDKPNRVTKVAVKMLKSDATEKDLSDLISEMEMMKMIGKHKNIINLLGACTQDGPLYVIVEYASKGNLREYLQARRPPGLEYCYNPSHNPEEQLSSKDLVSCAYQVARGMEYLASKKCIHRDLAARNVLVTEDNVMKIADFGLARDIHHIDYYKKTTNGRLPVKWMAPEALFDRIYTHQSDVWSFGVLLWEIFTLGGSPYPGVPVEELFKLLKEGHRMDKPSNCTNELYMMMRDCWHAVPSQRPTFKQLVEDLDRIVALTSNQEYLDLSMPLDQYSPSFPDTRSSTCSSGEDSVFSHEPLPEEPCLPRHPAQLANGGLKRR
UniProt P22455, residues 22-802: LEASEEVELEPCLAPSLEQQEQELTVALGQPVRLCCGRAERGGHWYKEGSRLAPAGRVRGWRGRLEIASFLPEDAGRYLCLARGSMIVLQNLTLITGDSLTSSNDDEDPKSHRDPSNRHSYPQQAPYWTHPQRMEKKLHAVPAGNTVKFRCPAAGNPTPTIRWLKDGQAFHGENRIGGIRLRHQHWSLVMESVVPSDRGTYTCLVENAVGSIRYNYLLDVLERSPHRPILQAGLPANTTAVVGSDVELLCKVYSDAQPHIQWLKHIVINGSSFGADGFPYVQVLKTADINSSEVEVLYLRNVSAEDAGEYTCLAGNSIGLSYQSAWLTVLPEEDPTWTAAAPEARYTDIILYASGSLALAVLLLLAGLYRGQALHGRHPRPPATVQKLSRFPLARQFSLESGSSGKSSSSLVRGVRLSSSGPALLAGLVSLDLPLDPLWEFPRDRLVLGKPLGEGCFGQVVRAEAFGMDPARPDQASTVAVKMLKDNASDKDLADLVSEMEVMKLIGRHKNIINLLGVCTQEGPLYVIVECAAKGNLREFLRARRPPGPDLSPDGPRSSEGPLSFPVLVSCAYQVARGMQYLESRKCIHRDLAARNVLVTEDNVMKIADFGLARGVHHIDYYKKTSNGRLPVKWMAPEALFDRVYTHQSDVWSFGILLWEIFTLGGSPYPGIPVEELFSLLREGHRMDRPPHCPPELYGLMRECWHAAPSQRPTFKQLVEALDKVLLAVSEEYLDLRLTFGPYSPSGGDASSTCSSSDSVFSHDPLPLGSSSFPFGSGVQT
UniProt P21802, residues 22-821: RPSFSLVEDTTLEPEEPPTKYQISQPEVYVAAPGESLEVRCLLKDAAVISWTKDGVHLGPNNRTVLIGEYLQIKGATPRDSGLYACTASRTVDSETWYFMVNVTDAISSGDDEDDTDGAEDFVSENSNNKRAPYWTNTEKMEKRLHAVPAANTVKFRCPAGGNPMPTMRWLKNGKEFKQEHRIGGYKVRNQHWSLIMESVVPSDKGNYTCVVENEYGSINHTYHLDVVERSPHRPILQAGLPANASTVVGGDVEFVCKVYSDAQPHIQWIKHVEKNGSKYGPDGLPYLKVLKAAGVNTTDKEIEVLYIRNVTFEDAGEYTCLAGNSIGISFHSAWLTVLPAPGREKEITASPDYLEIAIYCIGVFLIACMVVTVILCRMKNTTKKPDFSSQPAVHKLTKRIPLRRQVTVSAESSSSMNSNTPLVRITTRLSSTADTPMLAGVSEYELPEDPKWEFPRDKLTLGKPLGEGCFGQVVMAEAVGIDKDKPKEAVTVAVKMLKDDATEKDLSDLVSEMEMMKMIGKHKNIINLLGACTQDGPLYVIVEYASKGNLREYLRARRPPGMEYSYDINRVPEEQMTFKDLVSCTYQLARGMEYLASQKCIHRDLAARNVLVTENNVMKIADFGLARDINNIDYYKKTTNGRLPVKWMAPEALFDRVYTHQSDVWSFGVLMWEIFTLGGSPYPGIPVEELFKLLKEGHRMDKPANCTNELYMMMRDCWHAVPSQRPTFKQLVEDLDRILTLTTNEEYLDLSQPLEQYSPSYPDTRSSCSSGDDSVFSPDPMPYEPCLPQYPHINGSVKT
UniProt P09038, residues 143-288: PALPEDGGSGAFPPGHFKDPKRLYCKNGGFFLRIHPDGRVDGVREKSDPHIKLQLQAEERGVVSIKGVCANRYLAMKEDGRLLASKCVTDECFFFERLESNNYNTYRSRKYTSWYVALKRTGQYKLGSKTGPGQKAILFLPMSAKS

Tests used:
[1] = target: FGFR1 expressed on murine pre-B 300-19 cells (UniProt P11362); assay: flow cytometry on transfected 300-19 cells
[2] = target: FGFR4 expressed on murine pre-B 300-19 cells (UniProt P22455); assay: flow cytometry on transfected 300-19 cells
[3] = target: FGFR2 (cell binding assays) (UniProt P21802); assay: ligand binding assay on intact cells
[4] = target: FGFR4 (cell binding assays) (UniProt P22455); assay: ligand binding assay on intact cells

Row | Substance | binding [1] | binding [2] | binding [3] | binding [4]
1 | AlexaFluor488-labelled FGF2 (from UniProt P09038 143-288) (ligand) | binds | binds | – | –
2 | FGF2 (from UniProt P09038 143-288) (ligand) | – | – | binds | binds
